# Experimental data taken from paper PMC11558077.
# The chains behind the UniProt entries cited, without tags or fusion partners.
# UniProt P0DTC4: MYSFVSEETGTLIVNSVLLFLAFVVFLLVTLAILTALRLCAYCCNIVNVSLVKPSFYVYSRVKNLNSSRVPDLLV
# Results are given in words; binding and its absence hold for the method and conditions named. In cells and extracts the contact can be indirect. Some entries that bind do so weakly or less than the wild type.
# T1: USP33 in HEK293T cell lysate (Figure 1D, Figure 1F) (human) (UniProt Q8TEY7)
# T1 sequence: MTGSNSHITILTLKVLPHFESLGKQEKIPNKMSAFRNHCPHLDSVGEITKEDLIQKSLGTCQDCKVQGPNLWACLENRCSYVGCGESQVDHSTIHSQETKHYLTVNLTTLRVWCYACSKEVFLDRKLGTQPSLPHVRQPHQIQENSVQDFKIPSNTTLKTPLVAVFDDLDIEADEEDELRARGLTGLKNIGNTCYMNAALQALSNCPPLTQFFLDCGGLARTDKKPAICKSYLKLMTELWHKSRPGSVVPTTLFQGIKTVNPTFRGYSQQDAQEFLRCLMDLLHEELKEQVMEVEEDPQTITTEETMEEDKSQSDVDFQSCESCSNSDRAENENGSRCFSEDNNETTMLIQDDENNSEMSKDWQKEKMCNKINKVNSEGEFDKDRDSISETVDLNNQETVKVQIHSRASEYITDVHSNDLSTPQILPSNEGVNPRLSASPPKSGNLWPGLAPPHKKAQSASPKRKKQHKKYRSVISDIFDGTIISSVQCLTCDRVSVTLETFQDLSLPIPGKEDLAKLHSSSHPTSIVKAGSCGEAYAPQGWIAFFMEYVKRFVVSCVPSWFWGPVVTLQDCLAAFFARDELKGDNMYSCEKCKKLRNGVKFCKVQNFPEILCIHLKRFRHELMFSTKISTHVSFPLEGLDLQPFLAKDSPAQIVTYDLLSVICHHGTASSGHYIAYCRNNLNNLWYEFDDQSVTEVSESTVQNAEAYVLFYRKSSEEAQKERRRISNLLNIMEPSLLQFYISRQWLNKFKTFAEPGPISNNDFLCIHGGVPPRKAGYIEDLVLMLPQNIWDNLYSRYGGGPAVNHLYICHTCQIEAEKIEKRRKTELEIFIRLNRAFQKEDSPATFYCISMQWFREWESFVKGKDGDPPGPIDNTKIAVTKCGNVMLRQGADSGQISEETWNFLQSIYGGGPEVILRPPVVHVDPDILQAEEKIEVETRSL
# Key:
# [1] = target: T1, USP33 in HEK293T cell lysate (Figure 1D, Figure 1F) (human); experiment: co-IP
# [2] = target: GST-E protein (SARS-CoV-2) (UniProt P0DTC4); experiment: pull-down; only the target purified
Molecule,binding [1],binding [2]
"SARS-CoV-2 envelope (E) protein, tagged, from a transfected plasmid (from UniProt P0DTC4 1-75)",binds,–
"USP33 in HEK293T cell lysate (Figure 1D, Figure 1F) (enzyme, UniProt Q8TEY7 1-942) MTGSNSHITILTLKVLPHFESLGKQEKIPNKMSAFRNHCPHLDSVGEITKEDLIQKSLGTCQDCKVQGPNLWACLENRCSYVGCGESQVDHSTIHSQETKHYLTVNLTTLRVWCYACSKEVFLDRKLGTQPSLPHVRQPHQIQENSVQDFKIPSNTTLKTPLVAVFDDLDIEADEEDELRARGLTGLKNIGNTCYMNAALQALSNCPPLTQFFLDCGGLARTDKKPAICKSYLKLMTELWHKSRPGSVVPTTLFQGIKTVNPTFRGYSQQDAQEFLRCLMDLLHEELKEQVMEVEEDPQTITTEETMEEDKSQSDVDFQSCESCSNSDRAENENGSRCFSEDNNETTMLIQDDENNSEMSKDWQKEKMCNKINKVNSEGEFDKDRDSISETVDLNNQETVKVQIHSRASEYITDVHSNDLSTPQILPSNEGVNPRLSASPPKSGNLWPGLAPPHKKAQSASPKRKKQHKKYRSVISDIFDGTIISSVQCLTCDRVSVTLETFQDLSLPIPGKEDLAKLHSSSHPTSIVKAGSCGEAYAPQGWIAFFMEYVKRFVVSCVPSWFWGPVVTLQDCLAAFFARDELKGDNMYSCEKCKKLRNGVKFCKVQNFPEILCIHLKRFRHELMFSTKISTHVSFPLEGLDLQPFLAKDSPAQIVTYDLLSVICHHGTASSGHYIAYCRNNLNNLWYEFDDQSVTEVSESTVQNAEAYVLFYRKSSEEAQKERRRISNLLNIMEPSLLQFYISRQWLNKFKTFAEPGPISNNDFLCIHGGVPPRKAGYIEDLVLMLPQNIWDNLYSRYGGGPAVNHLYICHTCQIEAEKIEKRRKTELEIFIRLNRAFQKEDSPATFYCISMQWFREWESFVKGKDGDPPGPIDNTKIAVTKCGNVMLRQGADSGQISEETWNFLQSIYGGGPEVILRPPVVHVDPDILQAEEKIEVETRSL",–,binds
